Test results reported in the supplement of paper PMC10849652.
The list shows a part of the results.

Amino acid sequences for entries named in this document (tags omitted). A change or cut given only in a name is not applied to a line headed by its entry.
UniProt Q99707: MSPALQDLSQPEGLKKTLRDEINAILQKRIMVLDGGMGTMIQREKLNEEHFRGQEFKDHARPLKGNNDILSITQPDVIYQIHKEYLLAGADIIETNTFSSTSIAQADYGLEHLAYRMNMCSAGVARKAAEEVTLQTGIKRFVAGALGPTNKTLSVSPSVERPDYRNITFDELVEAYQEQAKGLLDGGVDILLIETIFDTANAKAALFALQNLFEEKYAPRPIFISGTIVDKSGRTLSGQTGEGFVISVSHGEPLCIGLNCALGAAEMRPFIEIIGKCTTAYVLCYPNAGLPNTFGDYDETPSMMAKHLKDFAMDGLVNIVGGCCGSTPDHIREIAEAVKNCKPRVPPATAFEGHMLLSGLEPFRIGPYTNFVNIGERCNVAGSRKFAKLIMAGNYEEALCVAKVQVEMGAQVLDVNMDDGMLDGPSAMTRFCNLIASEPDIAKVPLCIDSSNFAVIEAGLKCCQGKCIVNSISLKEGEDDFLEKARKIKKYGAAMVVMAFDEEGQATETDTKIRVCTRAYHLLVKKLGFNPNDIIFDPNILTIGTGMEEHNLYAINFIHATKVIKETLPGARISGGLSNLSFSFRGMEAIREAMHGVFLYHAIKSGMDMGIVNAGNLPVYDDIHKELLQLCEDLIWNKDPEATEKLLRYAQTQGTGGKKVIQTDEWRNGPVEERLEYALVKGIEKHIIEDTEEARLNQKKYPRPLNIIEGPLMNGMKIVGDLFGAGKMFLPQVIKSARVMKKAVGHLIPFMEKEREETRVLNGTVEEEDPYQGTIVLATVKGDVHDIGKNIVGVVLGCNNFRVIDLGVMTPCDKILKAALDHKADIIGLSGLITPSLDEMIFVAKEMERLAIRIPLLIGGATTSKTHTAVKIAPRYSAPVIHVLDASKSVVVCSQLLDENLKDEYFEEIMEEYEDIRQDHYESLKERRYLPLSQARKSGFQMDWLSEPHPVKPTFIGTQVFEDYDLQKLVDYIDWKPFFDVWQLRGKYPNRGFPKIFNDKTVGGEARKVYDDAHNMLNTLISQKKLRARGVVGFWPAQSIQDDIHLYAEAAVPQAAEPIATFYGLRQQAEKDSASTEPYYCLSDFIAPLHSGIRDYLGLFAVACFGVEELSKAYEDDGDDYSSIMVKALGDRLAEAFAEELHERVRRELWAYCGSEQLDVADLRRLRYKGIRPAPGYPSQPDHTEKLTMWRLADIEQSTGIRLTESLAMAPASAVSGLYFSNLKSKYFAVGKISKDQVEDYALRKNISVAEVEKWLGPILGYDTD
UniProt Q9ULH7: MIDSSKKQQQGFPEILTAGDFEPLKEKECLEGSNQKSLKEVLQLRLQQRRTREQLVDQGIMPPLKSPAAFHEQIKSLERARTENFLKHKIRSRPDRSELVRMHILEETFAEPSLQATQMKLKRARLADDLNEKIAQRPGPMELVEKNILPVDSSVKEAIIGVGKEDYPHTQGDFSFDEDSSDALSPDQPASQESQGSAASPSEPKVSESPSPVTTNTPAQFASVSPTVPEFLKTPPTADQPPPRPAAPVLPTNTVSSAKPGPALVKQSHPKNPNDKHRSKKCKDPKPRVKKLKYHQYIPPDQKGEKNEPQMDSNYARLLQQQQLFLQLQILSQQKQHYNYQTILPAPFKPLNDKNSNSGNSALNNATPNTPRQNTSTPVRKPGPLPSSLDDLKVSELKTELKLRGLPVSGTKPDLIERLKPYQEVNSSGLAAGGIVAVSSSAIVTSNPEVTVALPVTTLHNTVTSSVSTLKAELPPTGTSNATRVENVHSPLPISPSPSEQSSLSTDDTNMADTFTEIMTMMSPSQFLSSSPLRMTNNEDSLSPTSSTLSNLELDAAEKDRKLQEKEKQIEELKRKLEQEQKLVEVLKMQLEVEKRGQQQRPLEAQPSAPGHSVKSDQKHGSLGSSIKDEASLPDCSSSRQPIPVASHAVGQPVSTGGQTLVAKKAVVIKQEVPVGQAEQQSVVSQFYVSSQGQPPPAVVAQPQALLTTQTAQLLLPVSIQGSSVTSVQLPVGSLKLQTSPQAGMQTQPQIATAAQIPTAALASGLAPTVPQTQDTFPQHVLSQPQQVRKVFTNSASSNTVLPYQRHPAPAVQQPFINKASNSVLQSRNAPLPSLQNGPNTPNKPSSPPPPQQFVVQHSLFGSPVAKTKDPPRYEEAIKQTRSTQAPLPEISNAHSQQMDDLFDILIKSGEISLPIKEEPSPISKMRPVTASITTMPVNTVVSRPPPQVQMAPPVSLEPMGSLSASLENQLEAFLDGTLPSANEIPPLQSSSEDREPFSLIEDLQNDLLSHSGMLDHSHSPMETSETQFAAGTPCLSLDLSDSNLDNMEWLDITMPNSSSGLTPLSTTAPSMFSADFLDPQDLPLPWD
UniProt Q15390: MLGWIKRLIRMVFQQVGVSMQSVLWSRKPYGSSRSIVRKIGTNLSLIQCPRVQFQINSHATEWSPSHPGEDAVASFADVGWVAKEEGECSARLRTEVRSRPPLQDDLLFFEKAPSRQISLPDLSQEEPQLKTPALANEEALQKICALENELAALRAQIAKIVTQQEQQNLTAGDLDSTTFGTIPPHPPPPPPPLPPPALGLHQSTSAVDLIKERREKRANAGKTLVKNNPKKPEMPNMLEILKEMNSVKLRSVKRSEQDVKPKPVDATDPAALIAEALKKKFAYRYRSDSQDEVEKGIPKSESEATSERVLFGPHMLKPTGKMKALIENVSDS
UniProt Q9Y2Z2: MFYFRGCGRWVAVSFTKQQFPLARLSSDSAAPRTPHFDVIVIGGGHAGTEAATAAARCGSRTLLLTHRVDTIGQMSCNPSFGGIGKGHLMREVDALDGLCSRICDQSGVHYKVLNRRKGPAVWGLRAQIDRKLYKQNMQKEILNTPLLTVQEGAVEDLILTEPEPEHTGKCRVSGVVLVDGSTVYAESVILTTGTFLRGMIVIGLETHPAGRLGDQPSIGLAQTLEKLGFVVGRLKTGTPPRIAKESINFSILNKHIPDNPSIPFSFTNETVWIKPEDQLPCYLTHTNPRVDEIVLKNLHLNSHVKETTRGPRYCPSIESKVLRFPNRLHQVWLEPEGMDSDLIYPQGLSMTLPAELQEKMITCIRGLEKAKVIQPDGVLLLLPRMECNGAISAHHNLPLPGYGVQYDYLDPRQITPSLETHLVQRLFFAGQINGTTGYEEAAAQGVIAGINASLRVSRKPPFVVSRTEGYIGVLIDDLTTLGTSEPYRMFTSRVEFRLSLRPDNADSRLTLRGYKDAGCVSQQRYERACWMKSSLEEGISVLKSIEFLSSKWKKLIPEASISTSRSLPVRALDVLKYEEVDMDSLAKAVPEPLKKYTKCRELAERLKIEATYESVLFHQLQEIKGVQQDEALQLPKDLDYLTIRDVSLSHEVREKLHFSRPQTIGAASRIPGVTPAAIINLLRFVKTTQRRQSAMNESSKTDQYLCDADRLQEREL
UniProt O94776: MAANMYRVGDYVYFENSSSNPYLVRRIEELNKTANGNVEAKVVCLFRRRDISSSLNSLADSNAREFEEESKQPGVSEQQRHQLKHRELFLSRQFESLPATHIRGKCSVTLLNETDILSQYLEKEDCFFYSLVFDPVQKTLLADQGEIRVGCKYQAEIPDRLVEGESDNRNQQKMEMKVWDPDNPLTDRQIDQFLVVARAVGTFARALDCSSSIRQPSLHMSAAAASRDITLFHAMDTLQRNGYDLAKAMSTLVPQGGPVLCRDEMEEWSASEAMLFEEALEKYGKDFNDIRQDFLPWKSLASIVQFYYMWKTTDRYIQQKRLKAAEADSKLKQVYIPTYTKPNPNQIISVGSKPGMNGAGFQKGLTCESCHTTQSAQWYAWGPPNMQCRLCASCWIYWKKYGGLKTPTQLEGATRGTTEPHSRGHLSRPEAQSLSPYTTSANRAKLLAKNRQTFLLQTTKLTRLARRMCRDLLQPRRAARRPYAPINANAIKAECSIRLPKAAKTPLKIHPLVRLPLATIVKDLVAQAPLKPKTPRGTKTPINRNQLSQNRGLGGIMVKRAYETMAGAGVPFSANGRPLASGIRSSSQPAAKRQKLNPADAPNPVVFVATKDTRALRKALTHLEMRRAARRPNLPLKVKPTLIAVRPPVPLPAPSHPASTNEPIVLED
UniProt Q8NCE2: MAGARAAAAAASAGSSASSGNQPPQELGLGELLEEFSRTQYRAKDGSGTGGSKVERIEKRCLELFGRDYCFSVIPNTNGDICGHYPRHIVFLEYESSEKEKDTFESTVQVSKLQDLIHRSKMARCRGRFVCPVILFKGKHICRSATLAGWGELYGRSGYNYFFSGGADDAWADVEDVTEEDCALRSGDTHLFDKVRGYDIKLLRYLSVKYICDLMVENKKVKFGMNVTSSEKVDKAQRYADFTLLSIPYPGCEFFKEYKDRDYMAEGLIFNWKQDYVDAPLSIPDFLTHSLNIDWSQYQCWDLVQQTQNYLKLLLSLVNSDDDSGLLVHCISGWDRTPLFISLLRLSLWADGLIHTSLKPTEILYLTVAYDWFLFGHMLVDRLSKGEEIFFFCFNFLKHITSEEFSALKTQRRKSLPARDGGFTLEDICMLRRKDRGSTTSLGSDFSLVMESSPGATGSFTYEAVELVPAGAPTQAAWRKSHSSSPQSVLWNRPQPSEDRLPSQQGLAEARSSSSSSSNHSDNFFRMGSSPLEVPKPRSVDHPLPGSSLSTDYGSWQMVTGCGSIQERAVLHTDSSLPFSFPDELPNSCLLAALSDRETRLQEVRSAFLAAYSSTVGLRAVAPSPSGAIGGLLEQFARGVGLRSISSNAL
UniProt Q969V6: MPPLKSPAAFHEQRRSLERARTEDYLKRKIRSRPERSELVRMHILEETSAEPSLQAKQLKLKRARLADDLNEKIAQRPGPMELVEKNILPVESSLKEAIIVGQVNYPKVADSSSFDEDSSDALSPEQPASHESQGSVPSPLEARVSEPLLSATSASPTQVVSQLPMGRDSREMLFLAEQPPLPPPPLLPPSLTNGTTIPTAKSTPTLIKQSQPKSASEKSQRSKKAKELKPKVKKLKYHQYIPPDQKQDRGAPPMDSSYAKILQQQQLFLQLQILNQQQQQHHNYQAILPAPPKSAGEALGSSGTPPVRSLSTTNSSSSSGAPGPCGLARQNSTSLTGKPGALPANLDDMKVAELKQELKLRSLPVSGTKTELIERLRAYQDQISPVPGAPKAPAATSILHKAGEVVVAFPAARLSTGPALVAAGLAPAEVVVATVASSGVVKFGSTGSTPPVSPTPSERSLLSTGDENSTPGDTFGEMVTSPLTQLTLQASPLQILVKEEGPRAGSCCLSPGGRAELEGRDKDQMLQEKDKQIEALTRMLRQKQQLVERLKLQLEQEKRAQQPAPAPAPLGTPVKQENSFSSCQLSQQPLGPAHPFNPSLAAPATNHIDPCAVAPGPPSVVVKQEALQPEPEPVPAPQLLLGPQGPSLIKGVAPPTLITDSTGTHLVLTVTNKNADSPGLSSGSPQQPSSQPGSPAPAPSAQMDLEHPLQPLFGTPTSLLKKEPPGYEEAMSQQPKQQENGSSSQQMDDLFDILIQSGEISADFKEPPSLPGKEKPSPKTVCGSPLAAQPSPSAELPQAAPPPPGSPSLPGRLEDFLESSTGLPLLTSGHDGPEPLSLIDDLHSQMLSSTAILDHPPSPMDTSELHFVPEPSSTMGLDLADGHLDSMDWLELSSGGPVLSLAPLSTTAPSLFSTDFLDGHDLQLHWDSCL
UniProt Q96E11: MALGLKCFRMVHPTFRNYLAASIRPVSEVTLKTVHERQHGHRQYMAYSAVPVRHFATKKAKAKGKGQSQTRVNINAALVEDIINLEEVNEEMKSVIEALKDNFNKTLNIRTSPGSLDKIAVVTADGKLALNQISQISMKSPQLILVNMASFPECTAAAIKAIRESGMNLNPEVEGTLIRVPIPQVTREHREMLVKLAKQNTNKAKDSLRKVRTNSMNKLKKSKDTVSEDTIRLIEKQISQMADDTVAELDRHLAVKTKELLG

How the values were obtained:
Assay in all cases: log2 fold change, soluble protein after heating vs DMSO (PISA); higher = thermal stabilisation; K562 lysate, 10 uM; active = over 0.2 and 3.5 SD of the protein, either way, in both replicates (recomputed)
[1] = compound: C#Cc1cccc(Nc2ncnc3cc(OCCOC)c(OCCOC)cc23)c1 [erlotinib]
Method in brief: (§1)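 Soluble protein was defined as the supernatant remaining after 21,000xg for 90 min, following pooling of heated aliquots and adjustment to 0.5% NP-40 at 4°C. Before that, crude K562 extract at 1 mg/mL protein in PBS pH 7.4 with 1 mM MgCl2 was treated with 10 μM compound for 30 min and heated for 3 min across 48°C-58°C. Quantification used TMTpro 16plex LC-MS/MS with channel sums equalised, and values are log-two fold changes in thermal stability relative to solvent controls from duplicates.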

[2] = compound: C/C(=N\NC(=O)C1=CC(=CC=C1)S(=O)(=O)N2CCOCC2)/C3=C(C=CC(=C3)Cl)O
Method in brief: as §1

[3] = compound: C1=CC(=CC=C1C2=NC3=C(N2)C=C(C=C3)C(=O)N)OC4=CC=C(C=C4)Cl
Method in brief: as §1

[4] = compound: C1=CC2=C(C=CC(=C2)/C=C\3/C(=O)NC(=NCC4=CC=CS4)S3)N=C1
Method in brief: as §1

[5] = compound: C1=CC2=NC=CN=C2C=C1/C=C/3\C(=O)NC(=O)S3
Method in brief: as §1

[6] = compound: C1=CC=C(C=C1)C2=NC(=C(N2)C3=CC=NC=C3)C4=CC(=C(C=C4)Cl)O
Method in brief: as §1

[7] = compound: C1=CC=C2C(=C1)C3=NNC4=CC=CC(=C43)C2=O
Method in brief: as §1

[8] = compound: C1CCN(C1)C(=O)NC2=CC=CC(=C2)NC3=NC=C(C(=N3)NCCC4=CN=CN4)Br
Method in brief: as §1

[9] = compound: C1CN(CCC1(CC2=CC=C(C=C2)Cl)N)C3=NC=NC4=C3C=CN4
Method in brief: as §1

[10] = compound: C1COCCN1CCN2C3=CC=CC=C3N=C2NC(=O)C4=CC(=CC=C4)[N+](=O)[O-] [IRAK-1-4 Inhibitor I]
Method in brief: as §1

[11] = compound: C=CC(=O)N1CCC[C@@H](n2nc(-c3ccc(Oc4ccccc4)cc3)c3c(N)ncnc32)C1 [ibrutinib]
Method in brief: as §1

[12] = compound: CC(=O)c1cnc2ccc(-c3cc(Cl)c(O)c(Cl)c3)nc2c1N[C@H]1CC[C@H](CN(C)C)CC1
Method in brief: as §1

[13] = compound: CC(C)(C)Cn1c(N)nc2ccc(-c3[nH]c(C(C)(C)C)nc3-c3ccc(F)cc3)nc21 [ralimetinib]
Method in brief: as §1

[14] = compound: CC(C)(O)CC(=O)NCCn1ccc2ncnc(Nc3ccc(Oc4cccc(C(F)(F)F)c4)c(Cl)c3)c21
Method in brief: as §1

[15] = compound: CC(C)C1=C2N=C(C=C(N2N=C1)NCC3=CC=CC=C3)NCCCCCCN
Method in brief: as §1

[16] = compound: CC1=C(C(CC(=O)N1)C2=CC=C(C=C2)C(F)(F)F)C(=O)NC3=C(C=C4C(=C3)C=NN4)F
Method in brief: as §1

[17] = compound: CC1=C(C2=C(C=C1)C(=O)C3=CC=CC=C3N2CCCN)C
Method in brief: as §1

[18] = compound: CC1=C(C=C(C=C1)NC(=O)C2=CC(=CC=C2)C(C)(C)C#N)NC3=CC4=C(C=C3)N=CN(C4=O)C
Method in brief: as §1

[19] = compound: CC1=C(C=C(C=C1)NC(=O)C2=CC(=CC=C2)N(C)C)NC(=O)C3=CC=C(C=C3)O
Method in brief: as §1

[20] = compound: CC1=CC=C(C=C1)SC2=C3C=C(SC3=CN=C2)C(=O)N
Method in brief: as §1

Target	log2 fold change [1]	log2 fold change [2]	log2 fold change [3]	log2 fold change [4]	log2 fold change [5]	log2 fold change [6]	log2 fold change [7]	log2 fold change [8]	log2 fold change [9]	log2 fold change [10]	log2 fold change [11]	log2 fold change [12]	log2 fold change [13]	log2 fold change [14]	log2 fold change [15]	log2 fold change [16]	log2 fold change [17]	log2 fold change [18]	log2 fold change [19]	log2 fold change [20]
MRPL28 (UniProt Q13084)	inactive: -0.112	inactive: -0.085	inactive: 0.027	inactive: 0.011	inactive: -0.074	inactive: 0.017	inactive: 0.024	inactive: 0.042	inactive: -0.031	inactive: -0.03	inactive: 0.151	inactive: 0.04	inactive: 0.027	inactive: -0.005	inactive: 0.012	inactive: -0.112	inactive: -0.017	inactive: 0.057	inactive: -0.012	inactive: 0.023
MTR (UniProt Q99707)	inactive: -0.005	inactive: -0.044	inactive: 0.011	inactive: 0.002	inactive: 0.014	inactive: 0.002	inactive: -0.029	inactive: -0.029	inactive: 0.006	inactive: -0.006	inactive: 0.005	inactive: 0	inactive: 0.032	inactive: -0.009	inactive: 0.009	inactive: 0.011	inactive: -0.011	inactive: -0.003	inactive: 0.021	inactive: 0.027
MRPS26 (UniProt Q9BYN8)	inactive: 0.144	inactive: -0.04	inactive: -0.198	inactive: 0.026	inactive: -0.094	inactive: 0.288	inactive: -0.075	inactive: 0.016	inactive: -0.02	inactive: -0.055	inactive: 0.126	inactive: -0.183	inactive: -0.011	inactive: -0.008	inactive: -0.028	inactive: -0.016	inactive: -0.045	inactive: -0.006	inactive: 0.106	inactive: 0.156
MRPS18C (UniProt Q9Y3D5)	inactive: -0.004	inactive: -0.853	inactive: 0.02	inactive: -0.086	inactive: -0.002	inactive: -0.023	inactive: 0.022	inactive: 0.006	inactive: 0.049	inactive: 0.147	inactive: 0.041	inactive: 0.058	inactive: 0.028	inactive: -0.007	inactive: 0.011	inactive: -0.001	inactive: 0.027	inactive: -0.005	inactive: -0.041	inactive: -0.072
MRTFB isoform 5 (UniProt Q9ULH7)	inactive: -0.002	inactive: 0.014	inactive: -0.024	inactive: 0.031	inactive: 0.005	inactive: -0.021	inactive: -0.019	inactive: -0.007	inactive: 0.042	inactive: 0.094	inactive: 0.026	inactive: 0.052	inactive: 0.014	inactive: -0.01	inactive: 0.041	inactive: -0.014	inactive: -0.017	inactive: 0.089	inactive: -0.001	inactive: -0.026
MTFR1 (UniProt Q15390)	inactive: 0.067	inactive: 0.006	inactive: -0.004	inactive: 0.05	inactive: -0.058	inactive: -0.016	inactive: -0.052	inactive: -0.033	inactive: -0.014	inactive: 0.008	inactive: 0.036	inactive: 0.022	inactive: -0.01	inactive: -0.067	inactive: 0.018	inactive: 0.105	inactive: 0.001	inactive: 0	inactive: 0.038	inactive: -0.044
MRPL42 (UniProt Q9Y6G3)	inactive: 0.009	inactive: -0.01	inactive: -0.03	inactive: 0.016	inactive: 0.01	inactive: 0.029	inactive: -0.176	inactive: -0.023	inactive: -0.144	inactive: -0.064	inactive: 0.061	inactive: 0.03	inactive: 0.021	inactive: -0.087	inactive: -0.016	inactive: 0.07	inactive: -0.104	inactive: 0.048	inactive: 0.015	inactive: 0.038
MRPL39 isoform 2 (UniProt Q9NYK5)	inactive: 0.018	inactive: 0.031	inactive: 0.016	inactive: -0.009	inactive: 0.049	inactive: 0.022	inactive: -0.014	inactive: -0.062	inactive: 0	inactive: 0.041	inactive: 0.003	inactive: -0.007	inactive: 0	inactive: -0.053	inactive: -0.007	inactive: 0.006	inactive: -0.021	inactive: 0.015	inactive: 0.02	inactive: -0.054
MRPL35 (UniProt Q9NZE8)	inactive: -0.005	inactive: -0.237	inactive: -0.025	active: 0.296	inactive: 0.012	inactive: -0.011	inactive: -0.133			inactive: -0.041	inactive: -0.019	inactive: -0.014	inactive: 0.041	inactive: 0.047	inactive: 0.013	inactive: -0.012	inactive: -0.108	inactive: -0.032	inactive: 0.032	inactive: 0.01
MRPS30 (UniProt Q9NP92)	inactive: -0.002	inactive: 0.014	inactive: 0.047	inactive: -0.005	inactive: -0.089	inactive: 0.006	inactive: -0.1	inactive: -0.032	inactive: 0.062	inactive: 0.003	inactive: 0.022	inactive: -0.069	inactive: 0.049	inactive: -0.027	inactive: 0.012	inactive: 0.028	inactive: 0.006	inactive: 0.018	inactive: 0.058	inactive: -0.114
MRPS18A isoform 2 (UniProt Q9NVS2)	inactive: 0.024	inactive: -0.038	inactive: 0.038	inactive: 0.112	inactive: -0.035	inactive: -0.053	inactive: -0.013	inactive: 0.009	inactive: 0.004	inactive: 0.015	inactive: -0.015	inactive: 0.006	inactive: -0.015	inactive: -0.002	inactive: -0.046	inactive: 0.034	inactive: -0.131	inactive: 0.016	inactive: 0.043	inactive: -0.003
MTO1 isoform 4 (UniProt Q9Y2Z2)	inactive: -0.047	inactive: -0.115	inactive: -0.053	inactive: -0.044	inactive: -0.058	inactive: 0.067	inactive: 0.039	inactive: -0.075	inactive: 0.101	inactive: 0.031	inactive: 0.11		inactive: 0.001	inactive: -0.045	inactive: 0.04	inactive: 0.136	inactive: -0.076	inactive: 0.019	inactive: 0.008	
MTA2 (UniProt O94776)	inactive: -0.025	inactive: -0.017	inactive: 0.019	inactive: 0.013	inactive: -0.012	inactive: -0.015	inactive: -0.023	inactive: -0.007	inactive: 0.021	inactive: -0.005	inactive: -0.014	inactive: -0.023	inactive: 0.03	inactive: 0.021	inactive: 0.032	inactive: 0.011	inactive: 0.018	inactive: -0.008	inactive: 0.043	inactive: -0.009
MTMR14 (UniProt Q8NCE2)	inactive: 0.018	inactive: -0.015	inactive: -0.004	inactive: -0.005	inactive: 0.004	inactive: -0.012	inactive: -0.011	inactive: -0.032	inactive: 0.017	inactive: 0.001	inactive: -0.001	inactive: 0.042	inactive: -0.02	inactive: -0.093	inactive: -0.01	inactive: 0.031	inactive: 0.013	inactive: -0.007	inactive: -0.003	inactive: -0.007
MRTFA (UniProt Q969V6)	inactive: 0.096	inactive: -0.288	inactive: -0.015	inactive: 0.019	inactive: -0.04	inactive: 0.028	inactive: -0.108	inactive: 0.012	inactive: 0.006	inactive: 0.057	inactive: 0.062		inactive: 0.057	inactive: -0.219	inactive: -0.075	inactive: 0.012	inactive: -0.034	inactive: 0.017	inactive: -0.018	
MRRF (UniProt Q96E11)	inactive: -0.011	inactive: -0.006	inactive: 0.005	inactive: 0	inactive: 0.021	inactive: -0.008	inactive: -0.017	inactive: 0.064	inactive: 0.049	inactive: 0.009	inactive: 0.083	inactive: 0.027	inactive: -0.007	inactive: -0.036	inactive: -0.016	inactive: 0.007	inactive: -0.025	inactive: -0.015	inactive: 0.008	inactive: 0.017

Taken from above:
MRTFB isoform 5 (UniProt Q9ULH7) | log2 fold change [10]: inactive: 0.094
MRTFA (UniProt Q969V6) | log2 fold change [11]: inactive: 0.062
